These are yes or no findings as the source states them, for the method shown. For some of these results: Binding seen in cells or lysates may run through a third protein. Some results given as binding are weak or reduced against the parent protein; the word gives no strength. For some of these results: Tags and fused reporters may be left off the sequences shown.
T1: GST-tagged PRDM16 fragment, amino acids 1–223 (UniProt A2A935)
T1 sequence: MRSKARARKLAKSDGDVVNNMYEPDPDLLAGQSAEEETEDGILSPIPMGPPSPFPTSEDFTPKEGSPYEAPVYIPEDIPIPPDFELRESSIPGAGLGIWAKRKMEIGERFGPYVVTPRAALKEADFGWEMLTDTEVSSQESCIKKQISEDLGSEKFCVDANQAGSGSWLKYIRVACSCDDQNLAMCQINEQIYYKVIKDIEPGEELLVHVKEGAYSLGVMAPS

The chains behind the UniProt entries cited, without tags or fusion partners.
UniProt Q9H9B1: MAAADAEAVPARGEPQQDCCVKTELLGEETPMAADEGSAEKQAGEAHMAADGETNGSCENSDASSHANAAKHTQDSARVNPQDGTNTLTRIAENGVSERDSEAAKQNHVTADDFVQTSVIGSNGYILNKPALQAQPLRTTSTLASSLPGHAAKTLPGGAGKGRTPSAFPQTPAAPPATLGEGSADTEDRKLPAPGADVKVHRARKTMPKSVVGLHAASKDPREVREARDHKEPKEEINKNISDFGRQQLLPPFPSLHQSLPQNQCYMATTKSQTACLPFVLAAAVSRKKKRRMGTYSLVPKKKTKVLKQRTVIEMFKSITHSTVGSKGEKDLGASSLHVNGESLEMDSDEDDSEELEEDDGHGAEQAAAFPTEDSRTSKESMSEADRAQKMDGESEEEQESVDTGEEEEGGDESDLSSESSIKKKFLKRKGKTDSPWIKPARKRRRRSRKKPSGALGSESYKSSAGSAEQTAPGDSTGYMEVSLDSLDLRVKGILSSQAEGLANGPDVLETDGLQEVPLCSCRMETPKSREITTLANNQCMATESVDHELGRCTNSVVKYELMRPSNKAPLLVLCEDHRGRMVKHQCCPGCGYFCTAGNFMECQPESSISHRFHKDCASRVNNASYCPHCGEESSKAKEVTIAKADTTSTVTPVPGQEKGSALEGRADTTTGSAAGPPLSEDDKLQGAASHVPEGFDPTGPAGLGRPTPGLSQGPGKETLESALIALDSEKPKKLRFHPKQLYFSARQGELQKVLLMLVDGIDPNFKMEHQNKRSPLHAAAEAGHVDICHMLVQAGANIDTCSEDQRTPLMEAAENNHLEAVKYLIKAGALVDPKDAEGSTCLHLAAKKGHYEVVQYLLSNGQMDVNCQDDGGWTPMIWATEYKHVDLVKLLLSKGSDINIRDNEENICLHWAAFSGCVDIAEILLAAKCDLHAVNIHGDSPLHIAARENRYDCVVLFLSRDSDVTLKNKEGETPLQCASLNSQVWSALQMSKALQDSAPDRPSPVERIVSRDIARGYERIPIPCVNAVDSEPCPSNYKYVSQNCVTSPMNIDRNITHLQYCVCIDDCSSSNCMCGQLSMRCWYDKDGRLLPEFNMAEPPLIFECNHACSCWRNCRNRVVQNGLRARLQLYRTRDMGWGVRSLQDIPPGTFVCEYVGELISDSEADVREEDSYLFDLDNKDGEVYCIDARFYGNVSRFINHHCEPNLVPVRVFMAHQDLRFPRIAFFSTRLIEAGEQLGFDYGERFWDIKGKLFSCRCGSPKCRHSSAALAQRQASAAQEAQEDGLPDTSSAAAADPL


Experiments:
[1] = target: PRDM16 (expressed construct; tag not told) (UniProt A2A935); assay: co-IP; PRDM16–APPBP2 interaction in the presence of increasing EHMT1 (Fig. 5a); cells, tags and bait not told
[2] = target: T1, GST-tagged PRDM16 fragment, amino acids 1–223; assay: pull-down; GST-PRDM16 fragments preloaded on Glutathione-Sepharose beads, incubated with Myc-tagged APPBP2 protein for 2 h at 4 °C, washed four times, immunoblot; both purified
[3] = target: GST-tagged PRDM16 fragment, amino acids 881–1038 (UniProt A2A935); assay: as above
[4] = target: PRDM16 (expressed construct; tag not told) (UniProt A2A935); assay: co-IP; PRDM16 with WT or S561N APPBP2 (Extended Data Fig. 11a); cells, tags and bait not told
[5] = target: PRDM16 (PR domain-containing 16), endogenous (mouse (endogenous in inguinal WAT-derived adipocytes)) (UniProt A2A935); assay: co-IP; endogenous proteins in differentiated inguinal adipocytes treated with MG132; immunoprecipitation and immunoblot

Molecule | binding [1] | binding [4] | further results
APPBP2, wild type (expressed construct; tag and species not told) (from UniProt Q92624 1-585) | binds |  | 
EHMT1 (euchromatic histone-lysine N-methyltransferase 1) (from UniProt Q9H9B1 1-1298) | binds |  | 
Myc-tagged APPBP2 (from UniProt Q92624 1-585) |  |  | binding [2]: binds; binding [3]: binds
human APPBP2 (S561N) variant (from UniProt Q92624 1-585) |  | binds | 
human APPBP2, wild type (in the comparison with S561N) (from UniProt Q92624 1-585) |  | binds | 
APPBP2, endogenous (protein, UniProt Q9DAX9 1-585) MAAVELEWIPETLYNTAISAVVDNYIRSRRDIRSLPENIQFDVYYKLYQQGRLCQLGSEFCELEVFAKVLRALDKRHLLHHCFQALMDHGVKVASVLAYSFSRRCSYIAESDAAVKEKAIQVGFVLGGFLSDAGWYSDAEKVFLSCLQLCTLHDEMLHWFRAVECCVRLLHVRNGNCKYHLGEETFKLAQTYMDKLSKHGQQANRAALYGELCALLFAKSHYDEAYKWCVEAMKEITAGLPVKVVVDVLRQASKACVVKREFKKAEQLIKHAVYLARDHFGSKHPKYSDTLLDYGFYLLNVDNICQSVAIYQAALDIRQSVFGGKNIHVATAHEDLAYSSYVHQYSSGKFDNALFHAERAIGIITHILPEDHLLLASSKRVKALILEEIAIDCHNKETEQRLLQEAHDLHLSSLQLAKKAFGEFNVQTAKHYGNLGRLYQSMRKFKEAEEMHIKAIQIKEQLLGQEDYEVALSVGHLASLYNYDMNQYENAEKLYLRSIAIGKKLFGEGYSGLEYDYRGLIKLYNSIGNYEKVFEYHNVLSNWNRLRDRQYSVTDALEDVSSSPQSTEEVVQSFLMAQNVEGPSC |  |  | binding [5]: binds

Reference: PMC9433319
